Test results taken from article PMC4226561.
Results are given in words; binding and its absence hold for the method and conditions named. Some binding calls cover weakened binding; strength is not graded here. Where a sequence is shown, tags or fusion partners need not be part of it. Each block holds one binder with its values, some of them ahead of it.

Assays:
[1] = molecular target: T1, CESA7 (cellulose synthase, secondary cell wall), MbYTH fusion (Arabidopsis thaliana) (UniProt Q9SWW6); test: two-hybrid; split-ubiquitin membrane-based yeast two-hybrid (MbYTH) in S. cerevisiae NMY51; bait fused to Cub-TF, prey to NubG; 100 colonies of each combination spotted on selective medium with 3-AT, 30°C, three days, grown spots counted; called 'in vitro' by the paper
T1 sequence: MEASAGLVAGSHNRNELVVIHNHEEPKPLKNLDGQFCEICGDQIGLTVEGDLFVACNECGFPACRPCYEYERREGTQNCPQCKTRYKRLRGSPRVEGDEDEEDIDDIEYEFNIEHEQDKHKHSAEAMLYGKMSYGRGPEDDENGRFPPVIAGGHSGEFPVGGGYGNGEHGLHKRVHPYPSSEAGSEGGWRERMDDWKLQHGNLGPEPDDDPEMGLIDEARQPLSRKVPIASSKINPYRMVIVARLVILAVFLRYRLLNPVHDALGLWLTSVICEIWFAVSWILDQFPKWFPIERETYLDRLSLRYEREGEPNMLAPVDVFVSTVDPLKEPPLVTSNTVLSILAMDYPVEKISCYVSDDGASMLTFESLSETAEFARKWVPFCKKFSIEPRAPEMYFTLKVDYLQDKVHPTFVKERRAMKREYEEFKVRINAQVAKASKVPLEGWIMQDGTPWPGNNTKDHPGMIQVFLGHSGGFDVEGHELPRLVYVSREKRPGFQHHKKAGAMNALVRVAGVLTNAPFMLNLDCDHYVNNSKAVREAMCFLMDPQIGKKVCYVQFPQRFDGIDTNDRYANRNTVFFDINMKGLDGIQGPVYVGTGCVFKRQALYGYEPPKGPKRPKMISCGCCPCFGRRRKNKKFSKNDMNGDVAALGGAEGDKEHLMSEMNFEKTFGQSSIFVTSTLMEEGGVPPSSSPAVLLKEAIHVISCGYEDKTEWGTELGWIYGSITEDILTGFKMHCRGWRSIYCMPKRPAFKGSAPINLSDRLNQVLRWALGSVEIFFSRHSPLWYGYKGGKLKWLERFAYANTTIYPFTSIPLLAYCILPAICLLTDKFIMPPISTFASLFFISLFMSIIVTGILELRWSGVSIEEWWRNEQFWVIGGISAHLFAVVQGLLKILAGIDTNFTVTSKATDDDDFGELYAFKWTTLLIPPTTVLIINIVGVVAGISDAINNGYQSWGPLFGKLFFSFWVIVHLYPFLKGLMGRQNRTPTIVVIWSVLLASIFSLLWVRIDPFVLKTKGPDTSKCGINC

[2] = molecular target: T2, CESA6 (cellulose synthase, primary cell wall), MbYTH fusion (Arabidopsis thaliana) (UniProt Q94JQ6); test: as above
T2 sequence: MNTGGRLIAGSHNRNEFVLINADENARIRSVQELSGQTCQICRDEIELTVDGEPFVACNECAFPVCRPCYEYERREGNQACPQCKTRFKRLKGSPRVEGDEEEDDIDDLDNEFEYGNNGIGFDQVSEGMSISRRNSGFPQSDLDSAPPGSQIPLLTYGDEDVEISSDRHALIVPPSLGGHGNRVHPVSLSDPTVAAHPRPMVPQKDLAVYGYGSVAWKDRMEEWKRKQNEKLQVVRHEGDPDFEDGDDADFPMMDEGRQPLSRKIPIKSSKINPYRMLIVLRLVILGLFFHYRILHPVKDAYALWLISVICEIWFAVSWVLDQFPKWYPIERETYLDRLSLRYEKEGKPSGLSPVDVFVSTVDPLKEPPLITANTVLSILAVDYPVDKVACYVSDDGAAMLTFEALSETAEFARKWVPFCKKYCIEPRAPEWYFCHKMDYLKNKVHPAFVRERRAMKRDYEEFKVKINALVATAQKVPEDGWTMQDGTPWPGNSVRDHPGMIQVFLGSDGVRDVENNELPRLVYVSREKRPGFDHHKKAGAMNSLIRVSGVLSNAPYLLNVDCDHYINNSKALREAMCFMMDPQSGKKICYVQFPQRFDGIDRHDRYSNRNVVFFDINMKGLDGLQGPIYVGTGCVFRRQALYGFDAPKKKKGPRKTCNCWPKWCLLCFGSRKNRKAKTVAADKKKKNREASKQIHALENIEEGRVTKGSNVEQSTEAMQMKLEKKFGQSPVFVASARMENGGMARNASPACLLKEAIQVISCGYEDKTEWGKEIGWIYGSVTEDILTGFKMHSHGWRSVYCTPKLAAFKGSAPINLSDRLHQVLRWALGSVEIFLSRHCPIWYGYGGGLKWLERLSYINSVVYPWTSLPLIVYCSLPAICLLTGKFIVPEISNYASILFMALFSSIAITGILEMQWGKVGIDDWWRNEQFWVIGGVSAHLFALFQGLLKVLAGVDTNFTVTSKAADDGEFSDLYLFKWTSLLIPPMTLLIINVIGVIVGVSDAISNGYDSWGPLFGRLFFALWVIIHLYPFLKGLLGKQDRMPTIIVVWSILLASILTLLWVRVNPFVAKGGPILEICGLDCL

B2: KOR1N, N-terminal part of KOR1 with the transmembrane domain (AA 1 to 94), MbYTH fusion (domain or fragment, UniProt Q38890 1-94)
chain: MYGRDPWGGPLEINTADSATDDDRSRNLNDLDRAALSRPLDETQQSWLLGPTEQKKKKYVDLGCIIVSRKIFVWTVGTLVAAALLAGFITLIVK
- binding [1]: no binding
- binding [2]: binds

B3: KOR1NOTMD, KOR1 without the transmembrane domain (AA 1 to 69+95 to 621), MbYTH prey (domain or fragment, UniProt Q38890)
chain: MYGRDPWGGPLEINTADSATDDDRSRNLNDLDRAALSRPLDETQQSWLLGPTEQKKKKYVDLGCIIVSRTVPRHHPKTPPPDNYTIALHKALKFFNAQKSGKLPKHNNVSWRGNSGLQDGKGETGSFYKDLVGGYYDAGDAIKFNFPMAYAMTMLSWSVIEYSAKYEAAGELTHVKELIKWGTDYFLKTFNSTADSIDDLVSQVGSGNTDDGNTDPNDHYCWMRPEDMDYKRPVTTCNGGCSDLAAEMAAALASASIVFKDNKEYSKKLVHGAKVVYQFGRTRRGRYSAGTAESSKFYNSSMYWDEFIWGGAWMYYATGNVTYLNLITQPTMAKHAGAFWGGPYYGVFSWDNKLAGAQLLLSRLRLFLSPGYPYEEILRTFHNQTSIVMCSYLPIFNKFNRTNGGLIELNHGAPQPLQYSVNAAFLATLYSDYLDAADTPGWYCGPNFYSTSVLRDFARSQIDYILGKNPRKMSYVVGFGTKYPRHVHHRGASIPKNKVKYNCKGGWKWRDSKKPNPNTIEGAMVAGPDKRDGYRDVRMNYNYTEPTLAGNAGLVAALVALSGEEEATGKIDKNTIFSAVPPLFPTPPPPPAPWKP
- binding [1]: no binding
- binding [2]: no binding

B4: KOR1C, transmembrane domain plus the C-terminal part of KOR1 (AA 70 to 621), MbYTH fusion (domain or fragment, UniProt Q38890 70-621)
chain: KIFVWTVGTLVAAALLAGFITLIVKTVPRHHPKTPPPDNYTIALHKALKFFNAQKSGKLPKHNNVSWRGNSGLQDGKGETGSFYKDLVGGYYDAGDAIKFNFPMAYAMTMLSWSVIEYSAKYEAAGELTHVKELIKWGTDYFLKTFNSTADSIDDLVSQVGSGNTDDGNTDPNDHYCWMRPEDMDYKRPVTTCNGGCSDLAAEMAAALASASIVFKDNKEYSKKLVHGAKVVYQFGRTRRGRYSAGTAESSKFYNSSMYWDEFIWGGAWMYYATGNVTYLNLITQPTMAKHAGAFWGGPYYGVFSWDNKLAGAQLLLSRLRLFLSPGYPYEEILRTFHNQTSIVMCSYLPIFNKFNRTNGGLIELNHGAPQPLQYSVNAAFLATLYSDYLDAADTPGWYCGPNFYSTSVLRDFARSQIDYILGKNPRKMSYVVGFGTKYPRHVHHRGASIPKNKVKYNCKGGWKWRDSKKPNPNTIEGAMVAGPDKRDGYRDVRMNYNYTEPTLAGNAGLVAALVALSGEEEATGKIDKNTIFSAVPPLFPTPPPPPAPWKP
- binding [1]: no binding
- binding [2]: binds

Results, then the binder that gave them:

- binding [1]: no binding
B1: KORRIGAN1 (KOR1), complete protein (AA 1 to 621), MbYTH fusion (protein, UniProt Q38890 1-621)
chain: MYGRDPWGGPLEINTADSATDDDRSRNLNDLDRAALSRPLDETQQSWLLGPTEQKKKKYVDLGCIIVSRKIFVWTVGTLVAAALLAGFITLIVKTVPRHHPKTPPPDNYTIALHKALKFFNAQKSGKLPKHNNVSWRGNSGLQDGKGETGSFYKDLVGGYYDAGDAIKFNFPMAYAMTMLSWSVIEYSAKYEAAGELTHVKELIKWGTDYFLKTFNSTADSIDDLVSQVGSGNTDDGNTDPNDHYCWMRPEDMDYKRPVTTCNGGCSDLAAEMAAALASASIVFKDNKEYSKKLVHGAKVVYQFGRTRRGRYSAGTAESSKFYNSSMYWDEFIWGGAWMYYATGNVTYLNLITQPTMAKHAGAFWGGPYYGVFSWDNKLAGAQLLLSRLRLFLSPGYPYEEILRTFHNQTSIVMCSYLPIFNKFNRTNGGLIELNHGAPQPLQYSVNAAFLATLYSDYLDAADTPGWYCGPNFYSTSVLRDFARSQIDYILGKNPRKMSYVVGFGTKYPRHVHHRGASIPKNKVKYNCKGGWKWRDSKKPNPNTIEGAMVAGPDKRDGYRDVRMNYNYTEPTLAGNAGLVAALVALSGEEEATGKIDKNTIFSAVPPLFPTPPPPPAPWKP

- binding [1]: no binding
- binding [2]: binds
Binder: KIFVWTVGTLVAAALLAGFITLIVK (domain or fragment, UniProt Q38890 70-94) [KOR1TMD, only the transmembrane domain of KOR1 (AA 70 to 94), MbYTH fusion]
